Results taken from patent US12247972B2 (priority 2018, dated 2025).

System: CHO cells transiently expressing SCN5A (Nav1.5), CACNα1C (Cav1.2), KCNH2 and ChRWR

COC(=O)C1=C(C)NC(C)=C(C(=O)OC)C1c1ccccc1[N+](=O)[O-] [Nifedipine]
effect on action potential (calcium channel suppression): decreased the amplitude of action potential
